Data as given in PubChem BioAssay AID1224830 (NIAID, 2016)
Aim: 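Regulators of TLR4 signalling towards TNF-alpha in macrophage-like cells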 (primary screen). Cells: human THP-1 monocytic leukaemia cells, TNF dual-luciferase reporter clone, PMA-differentiated to macrophage-like cells. Reagents: siRNA pool against human genes, 50 nM. Time to read-out: LPS for 4 h, given about 3 days after siRNA transfection. Treatment: bacterial LPS (TLR4 ligand), 10 ng/ml. Measurement: 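Ratio of firefly to renilla light, scaled to the plate median and expressed as a robust z-score per replicate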. Direction: TNF reporter robust z-score: higher = stronger TNF reporter response to LPS. Active means: 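Each well counts as active if its z-score is over 2.8 or under -1.5; controls are left without a call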.
This is a random part of about 18,000 reagents tested. Over the whole deposit, about 2,900 (16%) got an active call. 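Calls are made per well; low scores hint the gene aids the LPS response, high scores that it dampens it.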 Unmarked entries are inactive. Repeated entries: four replicate wells of each siRNA pool.

After knock-down of SLC39A4, the record shows TNF reporter robust z-score 1.07.
Against SLC39A4, the values are TNF reporter robust z-score 1.09.
Against SLC39A4, the entry reads TNF reporter robust z-score 0.26.
SLC39A4 scored TNF reporter robust z-score 0.61.
With knock-down of RTL10, the record shows TNF reporter robust z-score 1.05.
With knock-down of RTL10 the results were TNF reporter robust z-score -0.16.
RTL10 gave TNF reporter robust z-score -0.19.
Knock-down of RTL10 gave: TNF reporter robust z-score -0.75.
RPRD2 gave TNF reporter robust z-score -1.27.
With knock-down of RPRD2, the screen gave TNF reporter robust z-score -1.08.
RPRD2 scored TNF reporter robust z-score -1.38.
Silencing of RPRD2 gave: TNF reporter robust z-score -0.61.
Against POLD4 the deposit lists TNF reporter robust z-score -1.51 (active).
Against POLD4, the entry reads TNF reporter robust z-score -1.12.
Silencing of POLD4 gave: TNF reporter robust z-score -1.44.
Knock-down of POLD4 resulted in: TNF reporter robust z-score -0.67.
Knock-down of NME9 came out at: TNF reporter robust z-score 0.1.
For NME9, the entry reads TNF reporter robust z-score 0.6.
NME9 showed TNF reporter robust z-score -0.15.
NME9 gave TNF reporter robust z-score 0.22.

Reprinted from the listing, 2 entries:
RPRD2 → TNF reporter robust z-score = -1.38
RPRD2 → TNF reporter robust z-score = -0.61
